The text below walks through data of patent US20150197729A1.

By UniProt entry, the sequences of proteins in these tests, tags left out. Residues count along the entry.
UniProt P62894, residues 2-105: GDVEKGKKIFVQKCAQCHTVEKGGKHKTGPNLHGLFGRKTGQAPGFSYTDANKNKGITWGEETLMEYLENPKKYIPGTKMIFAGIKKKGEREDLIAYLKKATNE
UniProt O14727: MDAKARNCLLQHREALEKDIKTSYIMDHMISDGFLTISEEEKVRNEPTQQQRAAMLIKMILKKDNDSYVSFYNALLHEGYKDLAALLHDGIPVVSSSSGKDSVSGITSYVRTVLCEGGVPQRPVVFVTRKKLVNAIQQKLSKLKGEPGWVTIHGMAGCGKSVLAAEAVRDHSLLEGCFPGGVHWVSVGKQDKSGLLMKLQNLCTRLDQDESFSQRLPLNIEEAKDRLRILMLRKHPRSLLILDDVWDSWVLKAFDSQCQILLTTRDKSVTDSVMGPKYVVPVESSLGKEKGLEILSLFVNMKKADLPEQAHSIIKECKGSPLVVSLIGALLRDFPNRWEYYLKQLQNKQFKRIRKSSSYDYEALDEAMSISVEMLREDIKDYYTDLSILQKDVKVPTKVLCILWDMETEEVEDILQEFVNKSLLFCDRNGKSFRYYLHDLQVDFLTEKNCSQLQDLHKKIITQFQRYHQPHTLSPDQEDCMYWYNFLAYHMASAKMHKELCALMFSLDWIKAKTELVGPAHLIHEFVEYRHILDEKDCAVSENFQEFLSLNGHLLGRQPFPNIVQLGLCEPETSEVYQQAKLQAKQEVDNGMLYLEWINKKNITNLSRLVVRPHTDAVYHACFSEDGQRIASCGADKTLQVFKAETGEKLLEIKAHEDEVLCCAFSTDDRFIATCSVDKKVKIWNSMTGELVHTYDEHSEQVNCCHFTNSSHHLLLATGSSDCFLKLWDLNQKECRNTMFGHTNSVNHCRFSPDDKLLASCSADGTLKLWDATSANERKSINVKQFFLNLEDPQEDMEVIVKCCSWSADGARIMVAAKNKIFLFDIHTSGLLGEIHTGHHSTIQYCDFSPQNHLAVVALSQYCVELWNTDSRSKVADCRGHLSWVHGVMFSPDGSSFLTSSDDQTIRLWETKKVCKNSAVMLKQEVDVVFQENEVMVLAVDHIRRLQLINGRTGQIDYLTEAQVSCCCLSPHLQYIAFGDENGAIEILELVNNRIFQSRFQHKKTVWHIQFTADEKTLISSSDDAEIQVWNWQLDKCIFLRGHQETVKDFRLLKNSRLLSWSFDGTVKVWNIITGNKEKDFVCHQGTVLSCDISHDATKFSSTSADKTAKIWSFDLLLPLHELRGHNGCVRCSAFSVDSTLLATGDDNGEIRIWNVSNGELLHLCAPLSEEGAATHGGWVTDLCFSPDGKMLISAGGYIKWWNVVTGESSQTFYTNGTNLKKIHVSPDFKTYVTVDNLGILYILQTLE

These are yes or no findings as the source states them, for the method shown. For some assays here: In cells and extracts the contact can be indirect. Some binding calls cover weakened binding; strength is not graded here.

The target in test [1] is Bovine cytochrome c (bovine) (UniProt P62894). Put plainly: pull-down: His-tagged Apaf-1 on Ni-NTA beads, 4 C, 1 h, Western blot. Background: In western blotting, separated proteins are transferred to a membrane and probed.
In test [2] the target is Recombinant full-length Apaf-1 (amino acids 1-1248) (UniProt O14727). Put plainly: Pull-down with His-tagged Apaf-1 on Ni-NTA beads, Western blot with anti-cytochrome c and anti-Apaf-1; total cellular RNA at 0.1, 0.2 and 0.4 ug/ul in lanes 3-5.

Turning to “Recombinant full-length Apaf-1 (amino acids 1-1248) (from UniProt O14727 1-1248)”, in test [1], the binding result is on record as “binds”.

With “Bovine cytochrome c (from UniProt P62894 2-105)”, the binding entry in test [2] was “binds”.
